Among the data in the supplement of paper PMC3682954 are cell viability values, retold here.

The experiment relates to RAW 264.7. Nature of the experiment: cell viability (MTT) relative to vehicle control; higher = more viable cells. Particulars: stimulus: HMGB1 5 ug/ml, 18 h.
Where [1] appears, read: compound concentration: 1 ug/ml.

Where a name gives a salt, the structure may show the parent alone. ± gives the standard deviation of the averaged measurements. The list shows a part of the results. Most values come without repeats; read them as rough.

As for `Cn1cnc([N+](=O)[O-])c1Sc1ncnc2[nH]cnc12` [Azathioprine], the cell viability (compound concentration: 3 uM) amounted to 96.5 ± 5.6%.
For `Cn1cnc([N+](=O)[O-])c1Sc1ncnc2[nH]cnc12`, the cell viability (compound concentration: 3 uM) was 102 ± 8.3%.
For the molecule `COc1cc2c(cc1OC)-c1c(OC)c(OC)cc3ccnc(c13)C2=O` [Oxoglaucine], the cell viability under setting [1] was found to be 86.3%.
On to `CC1COc2c(N3CCN(C)CC3)c(F)cc3c(=O)c(C(=O)O)cn1c23` (stereo not given) [Ofloxacin], for which the cell viability (compound concentration: 3 uM) came out at 105 ± 5.2%.
For `CC1COc2c(N3CCN(C)CC3)c(F)cc3c(=O)c(C(=O)O)cn1c23` (stereo not given), the cell viability (compound concentration: 3 uM) came out at 103%.
Consider `N[C@@H](CSSC[C@H](N)C(=O)O)C(=O)O`, for which the cell viability (compound concentration: 3 uM) was found to be 115%.
As to `COCC(=O)Nc1c(I)c(C(=O)NCC(O)CO)c(I)c(C(=O)N(C)CC(O)CO)c1I` (stereo not given) [Iopromide], for the setting “compound concentration: 3 uM”, the cell viability amounted to 72.3%.
As for `C[C@@]1(O)CCOC(=O)C1` [Mevalonic-D, L acid lactone], the cell viability (compound concentration: 3 uM) came out at 109%.
As to `O=C[C@H](O)[C@@H](O)[C@H](O)[C@H](O)CO[C@@H]1O[C@H](CO)[C@@H](O)[C@H](O)[C@H]1O` [Gentiobiose], the cell viability under setting [1] came out at 101%.
Regarding `CCOC(=O)Nc1ccc(NCc2ccc(F)cc2)nc1N` [Flupirtine maleate], for the setting “compound concentration: 3 uM”, the cell viability is 110%.
Take `COc1cn([C@@H]2O[C@H](CO)[C@@H](O)[C@H]2O)c(=O)[nH]c1=O` [5-Methoxyuridine]: the cell viability under setting [1] was 94.5%.
For the molecule `O=C(O)CCCC[C@@H]1SC[C@@H]2NC(=O)N[C@@H]21` [Biotin], the cell viability under setting [1] was found to be 97.2% and the cell viability (compound concentration: 3 uM) came out at 114%.
Turning to `O=C(O)CCCC[C@@H]1SC[C@@H]2NC(=O)N[C@@H]21`, the cell viability (compound concentration: 3 uM) is 101%.
`COC(=O)C1=C(C)NC(C)=C(C(=O)OC(C)C)C1c1cccc2nonc12` (stereo not given): the cell viability (compound concentration: 3 uM) came out at 94%.
With `COC(=O)C1=C(C)NC(C)=C(C(=O)OC(C)C)C1c1cccc2nonc12` (stereo not given) [Isradipine], the cell viability (compound concentration: 3 uM) turned out to be 71.4%.
Turning to `CC(C)(C)OC(=O)N[C@@H](Cc1cnc[nH]1)C(=O)O` [N-alpha-(tert-Butoxycarbonyl)-L-histidine], under setting [1], the cell viability is 97.7%.
Consider `CC(=O)SCC(Cc1ccccc1)C(=O)NCC(=O)OCc1ccccc1` (stereo not given), for which the cell viability (compound concentration: 3 uM) came out at 95.6%.
Same read-out and setting: in the case of `CC(=O)SCC(Cc1ccccc1)C(=O)NCC(=O)OCc1ccccc1` (stereo not given) [Racecadotril] it was 109 ± 5.5%.
With `C[C@H](CCC(=O)O)[C@H]1CC[C@H]2[C@@H]3CC[C@@H]4C[C@H](O)CC[C@]4(C)[C@H]3CC[C@]12C` [Lithocholic acid], the cell viability runs as follows: under setting [1], 123%; (compound concentration: 3 uM) 91.7%.
As to `O=C(O)/C=C/c1cnc[nH]1` [Urocanic acid], the cell viability under setting [1] was found to be 103%.
Take `O=C(O)/C=C/c1cnc[nH]1` [4-Imidazoleacrylic acid]: where the note is “compound concentration: 3 uM”, the cell viability was determined as 110%.
For the molecule `COCCc1ccc(OCC(O)CNC(C)C)cc1` (stereo not given) [Metoprolol], the cell viability (compound concentration: 3 uM) stood at 94.5%.
For `COCCc1ccc(OCC(O)CNC(C)C)cc1` (stereo not given), the cell viability (compound concentration: 3 uM) worked out at 110%.
As to `CC(C)(C)NC[C@H](O)COc1ccccc1C1CCCC1` [Penbutolol sulfate], the cell viability (compound concentration: 3 uM) is 84.3%.
Same read-out and setting: in the case of `COc1ccc(C(=O)c2ccccc2O)c(O)c1` [Dioxybenzone] it was 95.2%.
For `COc1ccc(C(=O)c2ccccc2O)c(O)c1`, the cell viability (compound concentration: 3 uM) worked out at 99.6%.
`COC1=CC(=O)C=C(OC)C1=O`: under “compound concentration: 3 uM”, the cell viability was 82.4%.
As for `CC(C)Cc1ccc(C(C)C(=O)O)cc1` (stereo not given) [Ibuprofen], the cell viability (compound concentration: 3 uM) turned out to be 84.4%.
On the same count and under the same terms, in the case of `CC(C)Cc1ccc(C(C)C(=O)O)cc1` (stereo not given) it was 98.9%.
For the molecule `COc1cc2c(cc1OC)C(=O)N(C)CC2` [N-methylcorydaldine], the cell viability under setting [1] was 90.9%.
Turning to `COc1ccc(CN2CCN(C(c3ccc(F)cc3)c3ccc(F)cc3)CC2)c(OC)c1OC` [Lomerizine], the cell viability (compound concentration: 3 uM) is 103%.
Regarding `COc1ccc(CN2CCN(C(c3ccc(F)cc3)c3ccc(F)cc3)CC2)c(OC)c1OC`, the cell viability (compound concentration: 3 uM) was 95.8%.
As to `O=C(O)C1(C(=O)O)CCC1.[NH2-].[NH2-].[Pt+2]` [Carboplatin], the cell viability (compound concentration: 3 uM) was 99.46 ± 0.23%.
With `O=C(O)C1(C(=O)O)CCC1.[NH2-].[NH2-].[Pt+2]`, the cell viability (compound concentration: 3 uM) was found to be 105 ± 6%.
As to `O=c1c(O)c(-c2ccc(O)c(O)c2)oc2cc(O)cc(O)c12` [Quercetin dihydrate], the cell viability (compound concentration: 3 uM) was 101%.
With `CC(=O)Nc1cccc(O)c1`, the cell viability (compound concentration: 3 uM) worked out at 112%.
With `Cc1cnc(C(=O)O)c[n+]1[O-]` [Acipimox], the cell viability (compound concentration: 3 uM) was determined as 100 ± 8.7%.
As to `COC(=O)C(N)Cc1ccc(Cl)cc1` (racemic) [DL-p-Chlorophenylalanine methyl ester hydrochloride], under “compound concentration: 3 uM”, the cell viability amounted to 98.5%.
As to `N[C@H](C(=O)O)[C@H]1C[C@@H]1C(=O)O` [(2S,1'S,2'S)-2-(carboxycyclopropyl)glycine], under “compound concentration: 3 uM”, the cell viability turned out to be 106%.
Consider `CC1=C(C/C=C(\C)CCC[C@H](C)CCC[C@H](C)CCCC(C)C)C(=O)c2ccccc2C1=O`, for which the cell viability (compound concentration: 3 uM) stood at 99.6%.
As to `CC1=C(C/C=C(\C)CCC[C@H](C)CCC[C@H](C)CCCC(C)C)C(=O)c2ccccc2C1=O` [Phylloquinone; phytonadione; Vitamin K_1], under setting [1], the cell viability was determined as 127%.
On to `O=C(OCCOCCO)c1ccccc1Nc1cccc(C(F)(F)F)c1` [Etofenamate], for which the cell viability (compound concentration: 3 uM) is 114%.
For the molecule `O=C(O)[C@H]1/C(=C/CO)O[C@@H]2CC(=O)N21` [Potassium clavulanate], for the setting “compound concentration: 3 uM”, the cell viability stood at 101%.

One may read the cell viability as a read-out of living cells in per cent, often relative to untreated cells.
